Taken from: PubChem BioAssay AID1671195 (Yale University, 2021)
Purpose: 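Genes whose knockdown alters LDL uptake in liver cancer cells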 (primary screen). System: human Huh7 hepatoma cells. Reagent: siRNA pool against human genes, 18 nM. Time to read-out: about 2 to 2.5 days of knockdown, then 8 h LDL uptake. Conditions: DiI-labelled LDL at 30 µg/ml for 8 h, in lipoprotein-deficient serum medium. Read-out: 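Fluorescent LDL signal imaged in cells, scaled to the plate median, robust z-score for each replicate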. Direction: robust z-score: higher = more LDL uptake after knockdown. Call rule: 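a gene counts as active if at least two replicate z-scores exceed ±2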.
This is one part, drawn at random, of about 22,000 reagents tested. About 1,510 of all reagents (6.9%) were called active. 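Active includes knockdowns raising or lowering LDL uptake; positive z-scores mean more uptake, negative mean less.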 No sequences are given here.

CDC6 (cell division cycle 6) — robust z-score, replicate 1: 0.55; robust z-score, replicate 2: 0.712; robust z-score, replicate 3: 0.49; outcome: inactive
ILDR2 (immunoglobulin like domain containing receptor 2) — robust z-score, replicate 1: 0.761; robust z-score, replicate 2: 1.1; robust z-score, replicate 3: 0.927; outcome: inactive
RPL36A (ribosomal protein L36a) — robust z-score, replicate 1: -0.863; robust z-score, replicate 2: -0.412; robust z-score, replicate 3: 0.0297; outcome: inactive
LDHA (lactate dehydrogenase A) — robust z-score, replicate 1: -0.00179; robust z-score, replicate 2: -0.176; robust z-score, replicate 3: -0.461; outcome: inactive
ZRANB2 (zinc finger RANBP2-type containing 2) — robust z-score, replicate 1: 0.182; robust z-score, replicate 2: 0.414; robust z-score, replicate 3: 0.285; outcome: inactive
CIAO1 (cytosolic iron-sulfur assembly component 1) — robust z-score, replicate 1: 1.52; robust z-score, replicate 2: -1.2; robust z-score, replicate 3: -0.916; outcome: inactive
UBE2D1 (ubiquitin conjugating enzyme E2 D1) — robust z-score, replicate 1: -1.31; robust z-score, replicate 2: -1.18; robust z-score, replicate 3: -1.31; outcome: inactive
LINC02872 (long independently transcribed non-coding RNA 2872) — robust z-score, replicate 1: 0.946; robust z-score, replicate 2: 0.812; robust z-score, replicate 3: 0.893; outcome: inactive
KCNK18 (potassium two pore domain channel subfamily K member 18) — robust z-score, replicate 1: -0.779; robust z-score, replicate 2: -0.839; robust z-score, replicate 3: -0.439; outcome: inactive
HBQ1 (hemoglobin subunit theta 1) — robust z-score, replicate 1: 0.398; robust z-score, replicate 2: -1.58; robust z-score, replicate 3: -3.23; outcome: inactive
GLYATL2 (glycine-N-acyltransferase like 2) — robust z-score, replicate 1: -1.45; robust z-score, replicate 2: -0.932; robust z-score, replicate 3: -1.14; outcome: inactive
ADGRL4 (adhesion G protein-coupled receptor L4) — robust z-score, replicate 1: -0.721; robust z-score, replicate 2: -0.593; robust z-score, replicate 3: 0.268; outcome: inactive
ATP8B4 (ATPase phospholipid transporting 8B4 (putative)) — robust z-score, replicate 1: -0.2; robust z-score, replicate 2: -0.636; robust z-score, replicate 3: -0.687; outcome: inactive
LOC440052 (retired record) — robust z-score, replicate 1: 0.0266; robust z-score, replicate 2: 0.0431; robust z-score, replicate 3: 0.135; outcome: inactive
RAB15 (RAB15, member RAS oncogene family) — robust z-score, replicate 1: -1.08; robust z-score, replicate 2: -1.02; robust z-score, replicate 3: -0.81; outcome: inactive
SMOC1 (SPARC related modular calcium binding 1) — robust z-score, replicate 1: 0.079; robust z-score, replicate 2: 0.112; robust z-score, replicate 3: -0.328; outcome: inactive
CPOX (coproporphyrinogen oxidase) — robust z-score, replicate 1: -0.0531; robust z-score, replicate 2: 0.347; robust z-score, replicate 3: 0.189; outcome: inactive
POLDIP3 (DNA polymerase delta interacting protein 3) — robust z-score, replicate 1: 0.174; robust z-score, replicate 2: 0.222; robust z-score, replicate 3: 0.71; outcome: inactive
LOC391362 (retired record) — robust z-score, replicate 1: 0.699; robust z-score, replicate 2: -0.252; robust z-score, replicate 3: -0.344; outcome: inactive
TMCO1 (transmembrane and coiled-coil domains 1) — robust z-score, replicate 1: -0.399; robust z-score, replicate 2: -1.92; robust z-score, replicate 3: -0.769; outcome: inactive
SDHAF2 (succinate dehydrogenase complex assembly factor 2) — robust z-score, replicate 1: -1.53; robust z-score, replicate 2: 0.144; robust z-score, replicate 3: -1.13; outcome: inactive
LOC391661 (retired record) — robust z-score, replicate 1: -1.01; robust z-score, replicate 2: -1.38; robust z-score, replicate 3: -1.48; outcome: inactive
NDUFB8 (NADH:ubiquinone oxidoreductase subunit B8) — robust z-score, replicate 1: 0.808; robust z-score, replicate 2: 0.0698; robust z-score, replicate 3: -0.138; outcome: inactive
GREM1 (gremlin 1, DAN family BMP antagonist) — robust z-score, replicate 1: -0.825; robust z-score, replicate 2: -0.439; robust z-score, replicate 3: -1.95; outcome: inactive
